Results published in article PMC11773815.
Construct, isoform or probe ends are uncertain for at least one entry. No signal at the amounts used counts as a negative.

Chains of the proteins cited; added tags and fusions are not shown. Chains listed by the source or under a name are the forms on record and can include a tag or linker.
MdH1.1 (Malus domestica), one chain, as listed by the source: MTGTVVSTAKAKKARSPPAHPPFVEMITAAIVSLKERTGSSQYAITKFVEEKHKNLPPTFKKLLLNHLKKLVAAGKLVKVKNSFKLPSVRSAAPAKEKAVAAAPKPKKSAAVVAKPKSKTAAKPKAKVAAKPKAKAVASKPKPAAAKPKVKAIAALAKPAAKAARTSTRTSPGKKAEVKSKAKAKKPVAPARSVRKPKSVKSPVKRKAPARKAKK

Experiments:
[1] = tested on: MdMYB73 (Malus domestica); experiment: EMSA; details: EMSA: LightShift kit binding buffer (10x stock), 1 ug/uL poly(dI-dC), 400 fmol biotin probe in 20 uL, room temperature 20 min, 6.5% native PAGE; salt and pH not stated; recombinant protein; protein details: His (pET-32a-c); label: biotin
MdH1.1 (Malus domestica) = experiment: EMSA; details: EMSA: LightShift kit binding buffer (10x stock), 1 ug/uL poly(dI-dC), 400 fmol biotin probe in 20 uL, room temperature 20 min, 6.5% native PAGE; salt and pH not stated; recombinant protein; protein details: His (pET-32a-c); label: biotin

Sequence | binding result [1] | binding result (MdH1.1 (Malus domestica))
AATTTTCATGTAATGAAAAAAAATTTTAGAAGAAAATG (double strand) [MdH1.1-5m] | no binding | –
AATTTTCATGTAATGAACAGTTGTTTTAGAAGAAAATG (double strand) [MdH1.1-5] | binds | –
ACACGTTGTGAGACAATGGCGCGACTTGAATTGAG (double strand) [MdPH5 probe] | – | binds
CAGAATTTCACGATTCTTAAAAAATTTCACTCCCCTG (double strand) [MdH1.1-3m] | no binding | –
CAGAATTTCACGATTCTTTAACCATTTCACTCCCCTG (double strand) [MdH1.1-3] | binds | –
CTAAAATCCATCAACTAAAAAAAAAGTTACACCCATT (double strand) [MdH1.1-2m] | no binding | –
CTAAAATCCATCAACTACAACCAAAGTTACACCCATT (double strand) [MdH1.1-2] | binds | –
CTCAATATATCGGGGGAAAAAAAAAATGGTAAATGAAC (double strand) [MdMYB73-1 mutant (mT1)] | – | no binding
CTCAATATATCGGGGGAAGCCCGAAATGGTAAATGAAC (double strand) [MdMYB73-1 (T1)] | – | binds
CTGCTGATTCTGTCTCTTTCCCGAGAAAAACCCAG (double strand) [MdCIbHLH1 probe] | – | binds
GTACAATGACGAGAATTATAAAAAAACATTCTTTTATC (double strand) [MdH1.1-4m] | no binding | –
GTACAATGACGAGAATTATAACCATTCATTCTTTTATC (double strand) [MdH1.1-4] | binds | –
TGATTCTGCTTCCGAGTAAAAAAAGTCAAACCGC (double strand) [MdH1.1-1m] | no binding | –
TGATTCTGCTTCCGAGTTAACTGAGTCAAACCGC (double strand) [MdH1.1-1] | binds | –
TTAATCTGATTATTATCTGTAAAAAAAATACTTTTTTT (double strand) [MdMYB73-2 mutant (mT2)] | – | no binding
TTAATCTGATTATTATCTGTGTGCGAAATACTTTTTTT (double strand) [MdMYB73-2 (T2)] | – | binds
TTTATAACCGGCATAAAAAAAAAACTTAAGATGT (double strand) [MdMYB73-3 mutant (mT3)] | – | no binding
TTTATAACCGGCATTACGCGCGCTCTTAAGATGT (double strand) [MdMYB73-3 (T3)] | – | binds
